# The whole screen tested about 350,000 compounds, of which about 6,000 (1.7%) were called active. This list was built around the results that the source calls inconclusive (neither active nor inactive); the mix of calls is not that of the screen. Rule as the data show it: active = CPE inhibition above about 20% (passing the limit was not always enough); inconclusive = no clear call, values can overlap the other calls; tested in BHK-21 cells.
# Experiment: protection of cells from dengue 2 killing – plate reader, single concentration, primary screen (AID 651640);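 also: 0% = median of neutral control wells and 100% = median of positive control wells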
# Conditions: DENV2-infected cells, cytopathic effect rescue, at 9.99 µM, active compounds read high
row,Compound,CPE inhibition
1,C[C@@H]1CCCCO[C@@H](CN(C)Cc2ccccc2)[C@H](C)CN([C@H](C)CO)C(=O)c2cc(NC(=O)NC3CCCCC3)ccc2O1,inactive: -3.9%
2,C=CC[n+]1c(-c2ccc(Cl)cc2Cl)csc1Nc1c(C)n(C)n(-c2ccccc2)c1=O,inconclusive: 37%
3,CC1(C(=O)NCCC#N)CCN1C(=O)CC(c1ccccc1)c1ccccc1 (configuration not stated),inconclusive: 59.9%
4,CCCC#Cc1cnc2c(c1)C(=O)N([C@H](C)CO)C[C@H](C)[C@@H](CN(C)C)O2,inconclusive: 49.7%
5,C[C@H](CO)N1C[C@H](C)[C@@H](CN(C)C(=O)Nc2ccc3c(c2)OCO3)Oc2ccc(NC(=O)Nc3ccc(F)cc3)cc2CC1=O,active: 23.3%
6,COc1ccc(S(=O)(=O)Nc2ccc3c(c2)C(=O)N([C@H](C)CO)C[C@@H](C)[C@@H](CN(C)Cc2ccc4c(c2)OCO4)OCCCC[C@@H](C)O3)cc1,active: 21.1%
7,Cc1noc(C)c1NC(=O)N(C)C[C@H]1OCCCC[C@@H](C)Oc2ccc(NC(=O)C3CCCCC3)cc2C(=O)N([C@@H](C)CO)C[C@H]1C,inconclusive: 21.7%
8,COc1ccc(C(=O)OCC(=O)NCC2CCCO2)cc1 (configuration not stated),inconclusive: 24.4%
9,CC(=O)NC(c1cccc(F)c1)c1nc(-c2cccc(C(C)C)c2)cs1 (configuration not stated),inactive: 8.89%
10,CC(=O)c1ccc(Nc2nc(C(N)Cc3ccc(N)cc3)cs2)cc1 (configuration not stated),inactive: -2.33%
11,CO[C@@H]1CN(C)C(=O)c2cc(NC(=O)C3CC3)ccc2OC[C@@H](C)N(Cc2ccncc2)C[C@@H]1C,inactive: -0.804%
12,C[C@@H]1CN([C@@H](C)CO)C(=O)c2cc(-c3cccc(F)c3)cnc2O[C@@H]1CN(C)C(=O)Nc1cc(F)ccc1F,active: 26.1%
13,COc1ccc(CN(C)C[C@@H]2OCCCC[C@@H](C)Oc3ccc(NC(=O)C4CCCCC4)cc3C(=O)N([C@@H](C)CO)C[C@@H]2C)cc1,inactive: -1.5%
14,COc1ccc(NC(=O)Nc2ccc3c(c2)C(=O)N([C@H](C)CO)C[C@H](C)[C@H](CN(C)C(=O)Nc2ccc4c(c2)OCO4)OCCCC[C@@H](C)O3)cc1,active: 40.2%
15,O=C(O)CCn1c(SCCOc2ccccc2F)nc2ccccc21,inconclusive: 30.8%
16,C/C=C/c1ccc2c(c1)O[C@H](CN(C)Cc1cccc(F)c1)[C@@H](C)CN([C@H](C)CO)S2(=O)=O,inactive: 10.3%
17,CC1(C(=O)Nc2cccc3ncccc23)CCN1C(=O)CCc1ccccc1 (configuration not stated),inconclusive: 32.2%
18,Cc1[nH]c2ccccc2c1C(=O)CSC(=S)N1CCN(C)CC1,active: 55.3%
19,COc1ccc2nc3ccccc3nc2c1,inconclusive: 22.1%
20,O=C([C@H]1[C@H](CO)[C@H]2Cn3c(cccc3=O)[C@@H]1N2Cc1ccccc1)N1CCCCC1,inactive: 0.229%
21,O=S(=O)(O)c1cccnc1SCc1ccccc1,inconclusive: 38.2%
22,CNc1cccc(-c2ccc(N3CCN(C)CC3)nc2)n1,inconclusive: 33.9%
23,CO[C@@H]1CN(C)C(=O)c2cc(NS(C)(=O)=O)ccc2OC[C@@H](C)N(CC2CCOCC2)C[C@H]1C,inactive: 14.2%
24,C[C@@H]1CN([C@H](C)CO)C(=O)c2cc(-c3ccc(F)cc3)cnc2O[C@@H]1CN(C)Cc1cncnc1,inconclusive: 29.3%

row,Compound,CPE inhibition
1,CC1CCCC(NC(=O)COC(=O)c2ccccc2Sc2ccccc2C#N)C1C (configuration not stated),active: 56.9%
2,CC(=O)c1sc(NC(=O)C2COc3ccccc3O2)nc1C (configuration not stated),inconclusive: 21.3%
3,CO[C@H]1CN(C)C(=O)c2ccc(NS(=O)(=O)c3c(C)noc3C)cc2OC[C@@H](C)NC[C@@H]1C,inactive: 17.4%
4,CC(=O)N(C)C[C@@H]1Oc2cc(-c3ccncc3)ccc2S(=O)(=O)N([C@H](C)CO)C[C@@H]1C,active: 29.3%
5,CCCNC(=O)N1[C@H](CO)[C@@H](c2ccccc2)[C@@H]1C#N,inconclusive: 20.3%
6,C[C@H]1CN(S(=O)(=O)c2ccc3c(c2)OCCO3)CCN1S(=O)(=O)c1c(F)cccc1F,inconclusive: 64%
7,CC(=O)N1c2ccc(S(=O)(=O)NCC3CCC(C(=O)NCc4ccc(C)cc4)CC3)cc2CC1C (configuration not stated),inactive: 4.37%
8,CC1CCN(C(=O)COC(=O)COc2ccccc2C#N)CC1,inconclusive: 22.8%
9,CCC(=O)N1[C@@H]2Cn3c(ccc(C4=CCCC4)c3=O)[C@H]1[C@@H](C(=O)N[C@@H](C)c1ccccc1)[C@@H]2CO,inactive: -13.7%
10,O=C(c1ccc2oc(Cc3ccc(Cl)cc3)nc2c1)N1CC[C@H](O)C1,inconclusive: 33.8%
11,C/C=C/c1ccc2c(c1)O[C@@H](CN(C)C(C)=O)[C@@H](C)CN([C@H](C)CO)S2(=O)=O,inconclusive: 33.6%
12,Cc1nc2cc(Cc3ccccc3)ccc2o1,inconclusive: 44.3%
13,Cc1c(Cl)cnc(NC(=O)COC(=O)/C=C/c2ccco2)c1Cl,inactive: -1.61%
14,CCC(=O)N1[C@H](CO)[C@H](c2ccc(-c3ccc(F)cc3)cc2)[C@H]1CNC(C)=O,inactive: -15.8%
15,Cc1cccc(-n2nnnc2-c2cnccc2C(F)(F)F)c1C,inconclusive: 59.4%
16,O=C(CCN1C(=O)/C(=C\C=C\c2ccccc2)SC1=S)Nc1ccc(C(=O)O)cc1,inconclusive: 37.1%
17,O=C(COC(=O)c1ccc(O)cc1)Nc1ccc(OC(F)F)cc1,inconclusive: 37.1%
18,CCn1c(C(O)c2cc(OC)ccc2OC)nc2ccccc21 (configuration not stated),inconclusive: 33.5%
19,COc1ccc(CNC(=O)C[C@@H]2C[C@H]3c4cc(NS(C)(=O)=O)ccc4O[C@H]3[C@H](CO)O2)cc1,inactive: 0.781%
20,CC(C)NC(=O)N(C)C[C@H]1Oc2ccc(NC(=O)Nc3cccc4ccccc34)cc2C(=O)N([C@H](C)CO)C[C@H]1C,inconclusive: 41.8%
21,C[C@H]1CN([C@@H](C)CO)C(=O)CCCn2cc(nn2)CO[C@H]1CN(C)C(=O)CCCN(C)C,inactive: -7%
22,O=C(NN=Cc1ccc2c(c1)OCO2)c1ccccc1,inconclusive: 48%
23,Cc1ccc(S(=O)(=O)Nc2ccc3c(c2)CC(=O)N([C@@H](C)CO)C[C@@H](C)[C@@H](CN(C)C(=O)Nc2ccccc2)O3)cc1,active: 38.8%

# Three entries from above, arranged by count of non-hydrogen atoms, low to high:
row,Compound,CPE inhibition
8,CC1CCN(C(=O)COC(=O)COc2ccccc2C#N)CC1,inconclusive: 22.8%
21,C[C@H]1CN([C@@H](C)CO)C(=O)CCCn2cc(nn2)CO[C@H]1CN(C)C(=O)CCCN(C)C,inactive: -7%
20,CC(C)NC(=O)N(C)C[C@H]1Oc2ccc(NC(=O)Nc3cccc4ccccc34)cc2C(=O)N([C@H](C)CO)C[C@H]1C,inconclusive: 41.8%

# — PubChem BioAssay AID651640 (Broad Institute, 2012)
